# According to PubChem BioAssay AID504648 (National Center for Advancing Translational Sciences (NCATS), 2011):
# In all, about 390,000 compounds went through this assay and about 610 (0.16%) were called active. Inconclusive results, whose numbers are uncertain, are shown with a selection of clear calls. Calls come from the whole dose curve; as a rule, active = well fitted inhibition curve with a large enough effect; inconclusive = small, poorly fitted or top-dose-only effect, or effect the other way, or another doubt; inactive = no such curve, though single readings can be large or run the other way. Where the call is inconclusive, the potency comes from a doubtful curve fit.
# Assay: Nrf2 qHTS screen for inhibitors: counterscreen for cytotoxicity
# Settings: A549 ARE-Fluc cells, CellTiter-Fluor viability, 18-24 h; series mostly up to 46 µM
# Outline: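 A549 ARE_Fluc cells in 5% FBS OPTI-MEM were exposed to compounds in concentration-response for 18-24 h at 37 deg C. Viability was read by CellTiter-Fluor fluorescence (Ex 405/Em 525) after 30 min, before the luciferase read.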
# Potency is the fitted concentration of half-maximal effect.
row,SMILES,Potency
1,COC(=O)C1=C(c2ccc(F)cc2OCc2ccccc2)C[C@@H]2CC[C@H]1N2C(=O)NCCc1ccc(F)cc1,"inconclusive: 29.1 µM [falling, single point]"
2,O=C1NCN(c2ccccc2)C12CCN(CCCC(c1ccc(F)cc1)c1ccc(F)cc1)CC2,"inconclusive: 10.3 µM [falling, partial curve]"
3,NC(=S)c1cn(C2OC(CO)C(O)C2O)c2ncnc(N)c12 (configuration not stated),"inconclusive: 0.731 µM [falling, full curve]"
4,Cc1ccc(-c2cc(-c3ccccc3)cc(-c3ccccc3)[n+]2-c2ccccc2)cc1,"inconclusive: 23.1 µM [falling, single point]"
5,COC(=O)C12CCc3c(ccc4cc(OC)ccc34)C1=CC(=O)C2 (configuration not stated),"inconclusive: 18.4 µM [activator, partial curve, poor fit]"
6,COc1ccc(NS(=O)(=O)c2cc(N=Nc3c(O)[nH]c(=O)[nH]c3=O)ccc2Cl)cc1,"inconclusive: 14.6 µM [falling, single point]"
7,CCN(CC)CCCOC(=O)C(OC(C)C)(c1ccccc1)c1ccccc1,"inconclusive: 29.1 µM [falling, single point]"
8,O=c1[nH]c(=S)[nH]c(O)c1/C=C1/C=c2ccccc2=N1,inactive
9,O=C1NC(=O)C2(Cc3cc([N+](=O)[O-])ccc3N3CCN(C(=O)c4ccccc4)CC32)C(=O)N1 (configuration not stated),"inconclusive: 29.1 µM [falling, single point]"
10,COC(=O)[C@H]1C[C@@H]1[C@H](NP(=O)(c1ccccc1)c1ccccc1)c1ccccc1,inactive
11,O=C(Oc1ccc(-c2nnco2)cc1)N1CCCCC1,"inconclusive: 32.6 µM [activator, single point]"
12,COC(=O)C1=C(c2cccc(OC)c2OC)C[C@@H]2CC[C@H]1N2C(=O)NCCNC(C)=O,inactive
13,N#Cc1c(Br)n(C2OC(CO)C(O)C2O)c2ncnc(N)c12 (configuration not stated),"inconclusive: 20.6 µM [falling, partial curve]"
14,N#CC(C#N)=NNc1ccc(-n2ccc(C(F)(F)F)n2)cc1,"inconclusive: 25.9 µM [falling, single point]"
15,C/C(=C\[C@@H](NP(=O)(c1ccccc1)c1ccccc1)c1ccccc1)CO[Si](c1ccccc1)(c1ccccc1)C(C)(C)C,"inconclusive: 29.1 µM [falling, partial curve, poor fit]"
16,O=C(COc1ccccc1)c1cn(Cc2ccccc2)c2ccccc12,"inconclusive: 7.31 µM [activator, partial curve, poor fit]"
17,CC(=O)C1C(N2CC2)CC2C3CC=C4CC(O)CCC4(C)C3CCC21C (configuration not stated),active: 8.2 µM

# In another format: results already given.
row | SMILES | Potency
11 | O=C(Oc1ccc(-c2nnco2)cc1)N1CCCCC1 | inconclusive: 32.6 µM [activator, single point]
12 | COC(=O)C1=C(c2cccc(OC)c2OC)C[C@@H]2CC[C@H]1N2C(=O)NCCNC(C)=O | inactive
